Measurements published in patent US20100330200A1, “COMBINATION OF A RETINOID AND A PLATINUM ANTICANCER AGENT” (SIGMA-TAU INDUSTRIE FARMACEUTICHE RIUNITE S.P.A., priority 2006, published 2010).
Some entries share one result that the patent states for a list of compounds.

Key:
[1] = test system: MDA-MB231 human breast carcinoma; experiment: MDA-MB231 breast carcinoma s.c. xenograft; format: in vivo, mouse (human xenograft); conditions: ST1926 30 mg/kg oral qdx2/wx3w, cisplatin 3.1 mg/kg iv q7dx3, combination: cisplatin 1 h before ST1926
[2] = test system: human ovarian carcinoma xenografts; experiment: Panel of human ovarian carcinoma xenografts, statements over several tumors; conditions: A2780 and HOC-18; suboptimal doses of cisplatin (3.1 mg/kg)
Source text: Drug treatment started at different tumor sizes.
Cisplatin was delivered intravenously every seventh day for three times (q7d×3).

**Q.** Which results are given for `O=C(O)/C=C/c1ccc(-c2ccc(O)c(C34CC5CC(CC(C5)C3)C4)c2)cc1` [ST1926, E-4-(3-(1-adamantyl)-4-hydroxyphenyl)cinnamic acid]?
**A.** TVI [1]: 44-50%; TWI [2]: < 50%
